Measurements as given in the supplement of paper PMC10849652.
The other results are listed elsewhere or left out.

The chains behind the UniProt entries cited, without tags or fusion partners. Where a name states a change or a piece, a line headed by the entry shows the natural chain unless it says otherwise.
UniProt Q9H019: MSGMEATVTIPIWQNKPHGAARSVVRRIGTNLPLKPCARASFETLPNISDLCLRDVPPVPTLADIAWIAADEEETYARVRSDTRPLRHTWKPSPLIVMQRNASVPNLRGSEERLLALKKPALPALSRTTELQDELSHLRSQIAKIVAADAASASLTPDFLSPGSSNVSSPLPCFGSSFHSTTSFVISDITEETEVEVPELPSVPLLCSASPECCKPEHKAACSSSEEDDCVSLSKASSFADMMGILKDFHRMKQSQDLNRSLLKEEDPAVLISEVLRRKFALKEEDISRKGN
UniProt P03928: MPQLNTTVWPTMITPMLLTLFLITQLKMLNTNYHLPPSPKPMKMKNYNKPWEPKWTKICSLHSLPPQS
UniProt Q2M296: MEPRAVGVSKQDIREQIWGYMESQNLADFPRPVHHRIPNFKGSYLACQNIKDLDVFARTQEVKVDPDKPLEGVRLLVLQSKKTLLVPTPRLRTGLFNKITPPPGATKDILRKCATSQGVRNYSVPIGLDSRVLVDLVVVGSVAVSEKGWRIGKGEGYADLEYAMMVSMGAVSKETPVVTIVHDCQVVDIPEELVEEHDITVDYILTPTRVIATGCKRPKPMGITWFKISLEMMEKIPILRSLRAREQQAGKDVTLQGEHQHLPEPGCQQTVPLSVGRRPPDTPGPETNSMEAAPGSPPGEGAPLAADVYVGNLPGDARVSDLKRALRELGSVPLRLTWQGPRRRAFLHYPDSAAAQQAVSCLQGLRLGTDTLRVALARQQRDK
UniProt Q96HJ5: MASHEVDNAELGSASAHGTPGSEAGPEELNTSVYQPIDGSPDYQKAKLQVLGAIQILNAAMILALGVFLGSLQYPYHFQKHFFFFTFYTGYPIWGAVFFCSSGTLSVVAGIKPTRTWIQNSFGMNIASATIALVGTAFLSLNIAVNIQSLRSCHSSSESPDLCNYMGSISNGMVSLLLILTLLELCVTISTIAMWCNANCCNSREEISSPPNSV
UniProt P00414, whole entry, looked up: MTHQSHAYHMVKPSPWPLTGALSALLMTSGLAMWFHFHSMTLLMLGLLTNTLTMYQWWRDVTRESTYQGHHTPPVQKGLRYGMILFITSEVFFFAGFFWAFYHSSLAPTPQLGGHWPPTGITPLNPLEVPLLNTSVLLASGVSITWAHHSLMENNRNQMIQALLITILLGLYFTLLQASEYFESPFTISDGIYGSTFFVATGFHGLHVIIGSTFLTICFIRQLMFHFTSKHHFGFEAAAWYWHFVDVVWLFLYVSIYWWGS
UniProt Q93083: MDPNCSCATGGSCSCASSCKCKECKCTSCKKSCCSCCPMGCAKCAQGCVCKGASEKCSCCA
UniProt O75570: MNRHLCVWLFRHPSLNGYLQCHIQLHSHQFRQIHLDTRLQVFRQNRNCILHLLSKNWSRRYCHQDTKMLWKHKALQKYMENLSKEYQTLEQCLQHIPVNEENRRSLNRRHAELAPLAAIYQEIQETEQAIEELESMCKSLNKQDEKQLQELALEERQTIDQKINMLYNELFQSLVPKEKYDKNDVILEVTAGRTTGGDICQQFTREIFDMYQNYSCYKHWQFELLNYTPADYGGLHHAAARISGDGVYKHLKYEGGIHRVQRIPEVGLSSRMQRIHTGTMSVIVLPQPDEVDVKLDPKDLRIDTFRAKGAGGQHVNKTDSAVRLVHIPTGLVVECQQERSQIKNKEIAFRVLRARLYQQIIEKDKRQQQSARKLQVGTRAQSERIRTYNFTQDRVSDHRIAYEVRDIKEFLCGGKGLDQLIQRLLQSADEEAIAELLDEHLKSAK
UniProt P13640: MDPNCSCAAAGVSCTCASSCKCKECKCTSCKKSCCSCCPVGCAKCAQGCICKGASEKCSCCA
UniProt Q9H2K0, whole entry, looked up: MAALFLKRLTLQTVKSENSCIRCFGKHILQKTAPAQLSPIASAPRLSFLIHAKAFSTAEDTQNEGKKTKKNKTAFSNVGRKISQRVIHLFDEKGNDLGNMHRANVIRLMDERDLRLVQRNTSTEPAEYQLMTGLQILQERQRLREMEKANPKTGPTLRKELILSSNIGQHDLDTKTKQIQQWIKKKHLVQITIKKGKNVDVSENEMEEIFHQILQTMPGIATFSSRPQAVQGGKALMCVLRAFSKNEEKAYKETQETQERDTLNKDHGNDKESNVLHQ
UniProt Q969V6: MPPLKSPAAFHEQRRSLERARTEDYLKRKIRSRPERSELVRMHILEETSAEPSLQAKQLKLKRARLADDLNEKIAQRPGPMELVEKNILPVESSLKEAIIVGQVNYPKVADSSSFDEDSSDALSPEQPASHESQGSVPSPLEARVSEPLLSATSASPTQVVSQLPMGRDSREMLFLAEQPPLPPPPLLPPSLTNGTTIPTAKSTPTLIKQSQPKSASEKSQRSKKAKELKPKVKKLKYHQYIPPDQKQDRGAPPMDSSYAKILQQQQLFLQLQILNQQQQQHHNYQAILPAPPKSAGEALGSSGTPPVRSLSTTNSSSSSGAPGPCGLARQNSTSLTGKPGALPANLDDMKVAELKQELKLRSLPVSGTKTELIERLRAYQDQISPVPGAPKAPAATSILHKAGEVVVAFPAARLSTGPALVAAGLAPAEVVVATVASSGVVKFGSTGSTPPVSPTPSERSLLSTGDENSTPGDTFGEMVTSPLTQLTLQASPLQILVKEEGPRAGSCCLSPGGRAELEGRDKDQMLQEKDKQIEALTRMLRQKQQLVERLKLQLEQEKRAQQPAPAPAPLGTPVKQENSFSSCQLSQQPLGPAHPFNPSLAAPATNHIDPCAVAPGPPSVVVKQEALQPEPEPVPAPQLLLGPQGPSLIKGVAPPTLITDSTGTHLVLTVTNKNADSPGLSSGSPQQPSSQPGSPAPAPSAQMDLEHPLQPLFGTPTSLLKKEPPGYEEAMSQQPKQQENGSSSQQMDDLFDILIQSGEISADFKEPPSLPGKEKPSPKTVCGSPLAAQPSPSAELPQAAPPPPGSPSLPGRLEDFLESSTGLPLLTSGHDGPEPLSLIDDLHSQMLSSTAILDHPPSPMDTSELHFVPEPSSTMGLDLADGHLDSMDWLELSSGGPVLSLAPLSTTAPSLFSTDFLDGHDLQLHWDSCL
UniProt P03923, whole entry, looked up: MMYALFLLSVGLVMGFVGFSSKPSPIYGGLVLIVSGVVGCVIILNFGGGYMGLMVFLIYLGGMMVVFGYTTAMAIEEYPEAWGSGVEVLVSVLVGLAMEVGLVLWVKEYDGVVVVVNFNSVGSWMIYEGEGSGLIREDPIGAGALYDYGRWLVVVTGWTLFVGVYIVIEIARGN
UniProt Q9HD23: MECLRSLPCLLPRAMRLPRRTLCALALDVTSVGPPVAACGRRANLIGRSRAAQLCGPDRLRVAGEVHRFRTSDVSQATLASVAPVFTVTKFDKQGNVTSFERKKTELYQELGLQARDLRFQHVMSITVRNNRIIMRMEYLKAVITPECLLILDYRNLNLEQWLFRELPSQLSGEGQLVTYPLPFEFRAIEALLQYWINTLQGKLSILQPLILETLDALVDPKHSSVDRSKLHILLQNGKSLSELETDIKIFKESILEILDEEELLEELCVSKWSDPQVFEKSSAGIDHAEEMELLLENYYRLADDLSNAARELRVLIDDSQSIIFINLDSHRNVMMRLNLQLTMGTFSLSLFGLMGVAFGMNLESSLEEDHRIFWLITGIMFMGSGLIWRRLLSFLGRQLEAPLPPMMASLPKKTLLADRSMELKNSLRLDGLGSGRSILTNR
UniProt P03897, whole entry, looked up: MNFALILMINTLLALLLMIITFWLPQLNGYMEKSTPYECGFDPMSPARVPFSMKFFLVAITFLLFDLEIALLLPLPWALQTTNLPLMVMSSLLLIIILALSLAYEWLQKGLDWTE
UniProt O43196: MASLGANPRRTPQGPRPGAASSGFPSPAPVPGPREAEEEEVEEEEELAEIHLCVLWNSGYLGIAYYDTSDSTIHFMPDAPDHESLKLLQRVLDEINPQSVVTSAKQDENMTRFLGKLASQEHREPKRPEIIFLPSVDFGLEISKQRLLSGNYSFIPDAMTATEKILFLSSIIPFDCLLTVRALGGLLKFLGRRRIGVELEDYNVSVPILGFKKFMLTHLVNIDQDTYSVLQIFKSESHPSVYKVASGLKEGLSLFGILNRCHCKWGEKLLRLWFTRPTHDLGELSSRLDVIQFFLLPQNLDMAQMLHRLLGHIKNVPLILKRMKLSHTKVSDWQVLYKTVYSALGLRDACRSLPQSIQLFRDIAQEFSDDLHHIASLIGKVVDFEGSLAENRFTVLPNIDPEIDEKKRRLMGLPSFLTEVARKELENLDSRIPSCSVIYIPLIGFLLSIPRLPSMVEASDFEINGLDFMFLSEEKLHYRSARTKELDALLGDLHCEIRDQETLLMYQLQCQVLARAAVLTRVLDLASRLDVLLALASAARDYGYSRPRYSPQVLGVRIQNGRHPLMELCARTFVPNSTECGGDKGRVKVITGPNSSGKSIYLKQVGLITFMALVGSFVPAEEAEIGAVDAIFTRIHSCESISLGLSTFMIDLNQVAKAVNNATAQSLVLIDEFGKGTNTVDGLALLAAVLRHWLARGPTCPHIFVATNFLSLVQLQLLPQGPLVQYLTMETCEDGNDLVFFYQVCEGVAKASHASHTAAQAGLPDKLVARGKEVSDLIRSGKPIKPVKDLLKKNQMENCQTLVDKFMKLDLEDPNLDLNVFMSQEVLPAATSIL
UniProt Q9NXD2: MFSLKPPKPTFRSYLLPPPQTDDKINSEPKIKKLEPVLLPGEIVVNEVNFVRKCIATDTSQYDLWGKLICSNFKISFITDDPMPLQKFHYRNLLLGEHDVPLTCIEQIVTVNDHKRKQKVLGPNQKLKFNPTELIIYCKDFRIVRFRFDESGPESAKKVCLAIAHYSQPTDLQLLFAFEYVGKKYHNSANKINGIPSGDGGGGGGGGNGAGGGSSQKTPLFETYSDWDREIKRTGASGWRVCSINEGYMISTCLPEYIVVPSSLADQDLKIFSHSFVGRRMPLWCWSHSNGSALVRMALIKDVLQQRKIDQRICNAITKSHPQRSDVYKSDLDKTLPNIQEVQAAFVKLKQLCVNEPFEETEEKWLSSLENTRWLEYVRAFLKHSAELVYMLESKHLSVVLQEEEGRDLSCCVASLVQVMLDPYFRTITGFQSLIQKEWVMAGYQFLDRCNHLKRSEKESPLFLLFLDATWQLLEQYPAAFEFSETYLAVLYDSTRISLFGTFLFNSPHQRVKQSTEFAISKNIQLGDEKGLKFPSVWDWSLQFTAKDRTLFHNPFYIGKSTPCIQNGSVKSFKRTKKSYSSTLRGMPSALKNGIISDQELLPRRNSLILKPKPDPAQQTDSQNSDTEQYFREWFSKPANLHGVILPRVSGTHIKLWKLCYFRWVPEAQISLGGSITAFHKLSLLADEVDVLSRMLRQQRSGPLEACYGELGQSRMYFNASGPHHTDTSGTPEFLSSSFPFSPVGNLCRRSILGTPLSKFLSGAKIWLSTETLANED
UniProt Q9UJ68: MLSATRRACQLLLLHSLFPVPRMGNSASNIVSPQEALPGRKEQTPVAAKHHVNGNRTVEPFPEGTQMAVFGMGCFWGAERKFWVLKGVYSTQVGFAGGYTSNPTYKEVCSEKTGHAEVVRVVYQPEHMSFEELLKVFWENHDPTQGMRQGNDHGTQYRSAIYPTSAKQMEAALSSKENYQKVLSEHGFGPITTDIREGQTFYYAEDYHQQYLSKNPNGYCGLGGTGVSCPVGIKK
UniProt Q96EF0: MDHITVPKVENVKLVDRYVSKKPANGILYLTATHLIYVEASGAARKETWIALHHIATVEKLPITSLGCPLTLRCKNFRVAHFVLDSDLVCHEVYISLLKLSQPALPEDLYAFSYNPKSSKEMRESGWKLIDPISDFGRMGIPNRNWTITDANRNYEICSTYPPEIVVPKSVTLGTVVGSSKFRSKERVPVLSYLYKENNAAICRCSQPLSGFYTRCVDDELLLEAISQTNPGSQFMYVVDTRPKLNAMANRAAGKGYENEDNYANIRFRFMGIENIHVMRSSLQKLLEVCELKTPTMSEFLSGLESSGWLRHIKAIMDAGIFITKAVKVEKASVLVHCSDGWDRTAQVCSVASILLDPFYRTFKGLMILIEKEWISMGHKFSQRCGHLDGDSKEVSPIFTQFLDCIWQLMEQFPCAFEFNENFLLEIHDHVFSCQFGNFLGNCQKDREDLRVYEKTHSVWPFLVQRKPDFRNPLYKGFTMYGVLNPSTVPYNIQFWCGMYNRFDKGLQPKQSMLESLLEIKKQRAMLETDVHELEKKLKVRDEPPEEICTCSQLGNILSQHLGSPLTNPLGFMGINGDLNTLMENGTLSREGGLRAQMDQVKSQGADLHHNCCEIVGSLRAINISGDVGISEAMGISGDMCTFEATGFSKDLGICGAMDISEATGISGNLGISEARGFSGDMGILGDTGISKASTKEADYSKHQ

Tests used:
Assay in all cases: log2 fold change, soluble protein after heating vs DMSO (PISA); higher = thermal stabilisation; K562 lysate, 10 uM; active = over 0.2 and 3.5 SD of the protein, either way, in both replicates (recomputed)
[1] = compound: Cc1cn(-c2cc(NC(=O)c3ccc(C)c(Nc4nccc(-c5cccnc5)n4)c3)cc(C(F)(F)F)c2)cn1 [nilotinib]
Summary of the method: (§1)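 Following dounce homogenisation of K562 pellets in PBS pH 7.4 with 1 mM MgCl2, crude extract at 1 mg/mL protein was incubated for 30 min with 10 μM compound. Aliquots were then heated for 3 min over 48°C-58°C and pooled, NP-40 was added to 0.5% at 4°C, and soluble protein was recovered as the supernatant at 21,000xg for 90 min. Channel-sum-equalised TMTpro 16plex LC-MS/MS quantified this protein. Each value, from duplicates, is a log-two fold change in thermal stability relative to solvent controls.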

[2] = compound: Cc1nc(Nc2n[nH]c3c2CN(C(=O)N[C@H](CN(C)C)c2ccccc2)C3(C)C)c2sccc2n1
Summary of the method: as §1

[3] = compound: Cc1nc(Nc2ncc(C(=O)Nc3c(C)cccc3Cl)s2)cc(N2CCN(CCO)CC2)n1 [dasatinib]
Summary of the method: as §1

[4] = compound: Cc1ncc(-c2ccnc(Nc3ccc(S(C)(=O)=O)cc3)n2)n1C(C)C
Summary of the method: as §1

[5] = compound: Cn1cc(-c2ccc3c(c2)CCN3C(=O)Cc2cccc(C(F)(F)F)c2)c2c(N)ncnc21
Summary of the method: as §1

[6] = compound: Cn1cc(CNCC2CCN(c3ncc(C(=O)NO)cn3)CC2)c2ccccc21 [quisinostat]
Summary of the method: as §1

[7] = compound: Cn1cncc1[C@@](N)(c1ccc(Cl)cc1)c1ccc2c(c1)c(-c1cccc(Cl)c1)cc(=O)n2C [tipifarnib]
Summary of the method: as §1

[8] = compound: NC(=O)Nc1cc(-c2cccc(F)c2)sc1C(=O)N[C@H]1CCCNC1
Summary of the method: as §1

[9] = compound: NC(=O)c1cnc(N[C@@H]2CCCC[C@@H]2N)nc1Nc1cccc(-n2nccn2)c1
Summary of the method: as §1

[10] = compound: NC1(c2ccc(-c3nc4ccn5c(=O)[nH]nc5c4cc3-c3ccccc3)cc2)CCC1
Summary of the method: as §1

[11] = compound: NCC(=O)Nc1ccc(-n2nc(C(F)(F)F)cc2-c2ccc3c(ccc4ccccc43)c2)cc1
Summary of the method: as §1

[12] = compound: O=C(CCCCCCC(=O)Nc1ccccc1)NO [vorinostat]
Summary of the method: as §1

[13] = compound: O=C(O)c1ccc2c(c1)nc(Nc1cccc(Cl)c1)c1ccncc12 [silmitasertib]
Summary of the method: as §1

[14] = compound: O=C1NC(=O)C(c2cnc3ccccn23)=C1c1cn2c3c(cc(F)cc13)CN(C(=O)N1CCCCC1)CC2
Summary of the method: as §1

[15] = compound: c1cn2cc(-c3ccc4cn[nH]c4c3)nc(Nc3ccc(N4CCOCC4)cc3)c2n1 [entospletinib]
Summary of the method: as §1

| Target | log2 fold change [1] | log2 fold change [2] | log2 fold change [3] | log2 fold change [4] | log2 fold change [5] | log2 fold change [6] | log2 fold change [7] | log2 fold change [8] | log2 fold change [9] | log2 fold change [10] | log2 fold change [11] | log2 fold change [12] | log2 fold change [13] | log2 fold change [14] | log2 fold change [15] |
| --- | --- | --- | --- | --- | --- | --- | --- | --- | --- | --- | --- | --- | --- | --- | --- |
| MTFR1L (UniProt Q9H019) | inactive: -0.019 | inactive: 0.043 | inactive: -0.115 | inactive: 0.006 | inactive: -0.029 | inactive: -0.043 | inactive: -0.092 | inactive: 0 | inactive: -0.08 | inactive: 0.129 | inactive: 0.042 | inactive: -0.273 | inactive: -0.18 | inactive: 0.033 | inactive: 0.01 |
| MT-ATP8 (UniProt P03928) | inactive: 0.055 | inactive: 0.177 |  | inactive: 0.214 |  | inactive: 0.043 | inactive: 0.085 | inactive: 0.056 | inactive: -0.067 | inactive: -0.084 | inactive: 0.056 | inactive: 0.155 | inactive: -0.026 | inactive: 0.08 | inactive: -0.009 |
| MSH4 (UniProt O15457) |  |  |  |  |  |  |  |  |  |  | inactive: -0.007 |  |  |  |  |
| MTHFSD (UniProt Q2M296) | inactive: -0.014 | inactive: 0.052 | inactive: -0.05 | inactive: 0.018 | inactive: 0.269 | inactive: 0.078 | inactive: -0.042 | inactive: -0.053 | inactive: 0.007 | inactive: 0.104 |  | inactive: -0.008 | inactive: -0.088 | inactive: 0.032 | inactive: 0.081 |
| MRPS15 (UniProt P82914) | inactive: -0.008 | inactive: -0.002 | inactive: -0.016 | inactive: -0.02 | inactive: -0.027 | inactive: -0.126 | inactive: 0.012 | inactive: 0.047 | inactive: -0.023 | inactive: -0.207 |  | inactive: -0.138 | inactive: -0.065 | inactive: 0.028 | inactive: -0.034 |
| MS4A3 (UniProt Q96HJ5) |  |  |  |  |  | inactive: -0.233 |  | inactive: -0.042 | inactive: -0.054 |  | inactive: -0.05 |  |  | inactive: 0.11 | inactive: -0.055 |
| MTCL1 (UniProt Q9Y4B5) |  |  | inactive: -0.017 |  | inactive: -0.028 | inactive: -0.087 |  | inactive: 0.011 | inactive: 0.078 | inactive: -0.016 | inactive: 0.033 | inactive: 0.095 | inactive: -0.016 | inactive: -0.016 | inactive: 0.01 |
| MT-CO3 (UniProt P00414) |  |  | inactive: -0.095 |  | inactive: -0.469 |  |  |  |  |  | inactive: 0.018 |  |  |  |  |
| MUC5AC (UniProt P98088) | inactive: 0.02 | inactive: 0.048 |  | inactive: 0.128 |  |  | active: -0.593 |  |  |  |  |  |  |  |  |
| MTHFD2L (UniProt Q9H903) |  |  |  |  |  | inactive: 0.155 |  | inactive: -0.164 |  | inactive: 0.28 |  | inactive: 0.176 | inactive: -0.081 | inactive: 0.089 |  |
| MTG1 (UniProt Q9BT17) | inactive: -0.057 | inactive: 0.224 |  | inactive: 0.129 |  |  | inactive: -0.076 |  |  |  |  |  |  |  |  |
| MT1L (UniProt Q93083) |  |  |  |  |  | inactive: 0.145 |  | inactive: -0.037 |  |  |  |  |  | inactive: 0.107 |  |
| MTHFD1 (UniProt V9GZ32) | inactive: -0.43 | inactive: -0.802 |  | inactive: -0.041 |  |  | inactive: 0.188 |  | inactive: -0.185 |  |  |  |  |  |  |
| MRPS21 (UniProt P82921) | inactive: 0.032 | inactive: -0.048 | inactive: 0.022 | inactive: 0.078 | inactive: 0 | inactive: -0.052 | inactive: -0.17 | inactive: 0.056 | inactive: -0.027 |  | inactive: -0.012 |  |  | inactive: -0.114 | inactive: 0.02 |
| MRPS14 (UniProt O60783) | inactive: -0.237 | inactive: -0.056 |  | inactive: 0.022 |  | inactive: -0.034 | inactive: 0.107 | inactive: -0.01 | inactive: -0.102 |  | inactive: -0.011 |  |  | inactive: 0.1 | inactive: -0.209 |
| MSANTD2 (UniProt Q6P1R3) |  |  | inactive: -0.136 |  | inactive: -0.011 | inactive: -0.01 |  | inactive: -0.059 |  | inactive: 0.013 | inactive: -0.117 | inactive: -0.44 | inactive: 0.144 | inactive: 0.023 | inactive: -0.067 |
| MTRF1 isoform 2 (UniProt O75570) |  |  |  |  |  | inactive: -0.133 |  | inactive: -0.105 |  |  |  |  |  | inactive: -0.3 |  |

In a second layout: results already given
Target	log2 fold change [1]	log2 fold change [2]	log2 fold change [3]	log2 fold change [4]	log2 fold change [5]	log2 fold change [6]	log2 fold change [7]	log2 fold change [8]	log2 fold change [9]	log2 fold change [10]	log2 fold change [11]	log2 fold change [12]	log2 fold change [13]	log2 fold change [14]	log2 fold change [15]
MT-ATP8 (UniProt P03928)	inactive: 0.055	inactive: 0.177		inactive: 0.214		inactive: 0.043	inactive: 0.085	inactive: 0.056	inactive: -0.067	inactive: -0.084	inactive: 0.056	inactive: 0.155	inactive: -0.026	inactive: 0.08	inactive: -0.009
MSH4 (UniProt O15457)											inactive: -0.007				
MRPS15 (UniProt P82914)	inactive: -0.008	inactive: -0.002	inactive: -0.016	inactive: -0.02	inactive: -0.027	inactive: -0.126	inactive: 0.012	inactive: 0.047	inactive: -0.023	inactive: -0.207		inactive: -0.138	inactive: -0.065	inactive: 0.028	inactive: -0.034
MS4A3 (UniProt Q96HJ5)						inactive: -0.233		inactive: -0.042	inactive: -0.054		inactive: -0.05			inactive: 0.11	inactive: -0.055
MT-CO3 (UniProt P00414)			inactive: -0.095		inactive: -0.469						inactive: 0.018				
MTHFD2L (UniProt Q9H903)						inactive: 0.155		inactive: -0.164		inactive: 0.28		inactive: 0.176	inactive: -0.081	inactive: 0.089	
MTG1 (UniProt Q9BT17)	inactive: -0.057	inactive: 0.224		inactive: 0.129			inactive: -0.076								
MSANTD2 (UniProt Q6P1R3)			inactive: -0.136		inactive: -0.011	inactive: -0.01		inactive: -0.059		inactive: 0.013	inactive: -0.117	inactive: -0.44	inactive: 0.144	inactive: 0.023	inactive: -0.067
MTRF1 isoform 2 (UniProt O75570)						inactive: -0.133		inactive: -0.105						inactive: -0.3	

(further entries)

| Target | log2 fold change [1] | log2 fold change [2] | log2 fold change [3] | log2 fold change [4] | log2 fold change [5] | log2 fold change [6] | log2 fold change [7] | log2 fold change [8] | log2 fold change [9] | log2 fold change [10] | log2 fold change [11] | log2 fold change [12] | log2 fold change [13] | log2 fold change [14] | log2 fold change [15] |
| --- | --- | --- | --- | --- | --- | --- | --- | --- | --- | --- | --- | --- | --- | --- | --- |
| MT1G (UniProt P13640) | inactive: 0.173 | inactive: 0.041 | inactive: -0.162 | inactive: 0.264 | inactive: -0.289 | inactive: 0.099 | inactive: 0.089 | inactive: -0.12 | inactive: -0.037 | inactive: -0.05 | inactive: -0.118 | inactive: -0.595 | inactive: 0.155 | inactive: -0.212 | inactive: 0.06 |
| MTIF3 (UniProt Q9H2K0) | inactive: 0.108 | inactive: -0.019 | inactive: -0.113 | inactive: 0.026 | inactive: -0.049 |  | inactive: 0.035 |  | inactive: 0.052 | inactive: -0.029 | inactive: 0.1 | inactive: 0.135 | inactive: -0.071 |  |  |
| MRTFA (UniProt Q969V6) | inactive: 0.075 | inactive: -0.096 | inactive: 0.254 | inactive: 0.156 | inactive: -0.118 | inactive: 0.04 | inactive: -0.144 | inactive: 0.003 |  | inactive: 0.039 | inactive: -0.124 | inactive: -0.202 | inactive: 0.1 | inactive: -0.04 | inactive: -0.006 |
| MT-ND6 (UniProt P03923) |  |  |  |  |  | inactive: -0.352 |  | inactive: 0.009 | inactive: 0.057 | inactive: 0.05 |  | inactive: 0.145 | inactive: -0.004 | inactive: -0.034 |  |
| MRS2 isoform 2 (UniProt Q9HD23) | inactive: 0.093 | inactive: -0.041 |  | inactive: -0.166 |  | inactive: -0.126 | inactive: 0.097 | inactive: -0.01 |  |  |  |  |  | inactive: -0.132 |  |
| MRPL27 (UniProt Q9P0M9) | inactive: -0.112 | inactive: 0.027 | inactive: 0.089 | inactive: -0.039 | inactive: 0.091 | inactive: -0.012 | inactive: 0.015 | inactive: -0.006 | inactive: 0.072 | inactive: -0.064 |  | inactive: 0.087 | inactive: 0.106 | inactive: -0.008 | inactive: -0.027 |
| MT-ND3 (UniProt P03897) | inactive: 0.165 | inactive: 0.076 |  | inactive: -0.382 |  | inactive: 0.244 | inactive: -0.154 | inactive: -0.052 | inactive: -0.412 | inactive: 0.032 |  | inactive: -0.351 | inactive: 0.119 | inactive: -0.139 | inactive: 0.096 |
| MTHFR (UniProt F8W9T8) | inactive: -0.079 | inactive: -0.103 |  | inactive: 0.228 |  |  | inactive: 0.001 |  |  |  |  |  |  |  |  |
| MSH5 isoform 3 (UniProt O43196) |  |  | inactive: -0.077 |  | inactive: 0.304 | inactive: -0.554 |  | inactive: 0.037 | inactive: 0.082 |  |  |  |  | inactive: -0.105 | inactive: -0.217 |
| MTMR10 (UniProt Q9NXD2) | inactive: -0.168 | inactive: 0.019 | inactive: 0.074 | inactive: 0.017 | inactive: -0.141 | inactive: 0.004 | inactive: -0.038 | inactive: 0.094 | inactive: 0.051 | inactive: 0.07 |  | inactive: -0.187 | inactive: 0.03 | inactive: 0.077 |  |
| MUC19 (UniProt Q7Z5P9) |  |  |  |  |  |  |  |  | inactive: 0.001 |  |  |  |  |  |  |
| MSRA (UniProt Q9UJ68) |  |  |  |  |  |  |  |  | inactive: 0.074 |  |  |  |  |  | inactive: -0.032 |
| MRPL30 isoform 2 (UniProt Q8TCC3) | inactive: -0.048 | inactive: -0.066 | inactive: -0.038 | inactive: 0.047 | inactive: 0.03 | inactive: -0.13 | inactive: 0.052 | inactive: -0.007 | inactive: 0 | inactive: 0.039 |  | inactive: 0.041 | inactive: -0.023 | inactive: -0.012 | inactive: -0.046 |
| MTURN (UniProt Q8N3F0) |  |  | inactive: 0.051 |  | inactive: 0.027 | inactive: 0.014 |  | inactive: 0.015 |  |  |  |  |  | inactive: 0.086 | inactive: -0.037 |
| MRPL34 (UniProt Q9BQ48) |  |  | inactive: -0.013 |  | inactive: 0.055 | inactive: -0.011 |  | inactive: 0.005 | inactive: -0.036 |  |  |  |  | inactive: 0.054 | inactive: -0.242 |
| MTMR8 (UniProt Q96EF0) |  |  | inactive: -0.102 |  | inactive: 0.054 |  |  |  |  | inactive: 0.06 |  | inactive: -0.081 | inactive: 0.313 |  |  |
